Assay results reported in publication PMC7498585.
Read-outs that look alike come from different tables or passages of the source. No constants are given. Whether binding was seen depends on the method and setting. Binding seen in cells or lysates may run through a third protein. Here binding means that the protein was enriched with, or labelled near, the bait; the list need not be complete. Where a sequence is shown, tags or fusion partners need not be part of it.

Protein sequences, listed by entry. Tags and fused reporters are not part of them.
UniProt Q01650: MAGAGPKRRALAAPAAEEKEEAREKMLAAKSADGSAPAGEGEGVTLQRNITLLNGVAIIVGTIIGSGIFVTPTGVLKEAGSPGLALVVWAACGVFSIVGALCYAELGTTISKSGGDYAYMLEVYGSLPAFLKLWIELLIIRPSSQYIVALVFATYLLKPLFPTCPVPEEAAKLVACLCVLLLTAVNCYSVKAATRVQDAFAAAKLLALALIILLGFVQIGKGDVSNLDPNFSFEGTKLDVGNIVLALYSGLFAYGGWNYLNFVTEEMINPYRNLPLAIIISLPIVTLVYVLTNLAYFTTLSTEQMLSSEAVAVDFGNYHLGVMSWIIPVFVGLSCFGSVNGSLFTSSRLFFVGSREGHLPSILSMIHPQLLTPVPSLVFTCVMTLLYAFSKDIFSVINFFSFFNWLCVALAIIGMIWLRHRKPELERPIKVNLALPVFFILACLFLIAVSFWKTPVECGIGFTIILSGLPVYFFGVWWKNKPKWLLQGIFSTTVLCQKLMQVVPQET

T1: DRAM1-BioID2-FLAG (human) (UniProt Q8N682)
T1 sequence: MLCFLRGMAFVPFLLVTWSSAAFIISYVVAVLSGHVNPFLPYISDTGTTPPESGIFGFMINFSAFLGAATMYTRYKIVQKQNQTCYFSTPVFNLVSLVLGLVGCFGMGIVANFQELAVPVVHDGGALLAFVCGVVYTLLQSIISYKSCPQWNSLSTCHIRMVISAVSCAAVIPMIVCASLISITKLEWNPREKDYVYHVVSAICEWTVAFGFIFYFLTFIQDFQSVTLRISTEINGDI


Assays:
[1] = molecular target: T1, DRAM1-BioID2-FLAG (human); experiment: proximity labelling; BioID2 fused to the C-terminus of DRAM1, transiently expressed in HEK293T; 30 μM biotin for 24 h; RIPA lysate; biotinylated proteins isolated on avidin resin and identified by LC-MS/MS
[2] = molecular target: T1, DRAM1-BioID2-FLAG (human); experiment: as above; remark: listed apart in the source

Molecule | binding [1] | binding [2]
SLC3A2 (from UniProt P08195 1-529) | binds | 
SLC1A5 (protein, UniProt Q15758 1-541) MVADPPRDSKGLAAAEPTANGGLALASIEDQGAAAGGYCGSRDQVRRCLRANLLVLLTVVAVVAGVALGLGVSGAGGALALGPERLSAFVFPGELLLRLLRMIILPLVVCSLIGGAASLDPGALGRLGAWALLFFLVTTLLASALGVGLALALQPGAASAAINASVGAAGSAENAPSKEVLDSFLDLARNIFPSNLVSAAFRSYSTTYEERNITGTRVKVPVGQEVEGMNILGLVVFAIVFGVALRKLGPEGELLIRFFNSFNEATMVLVSWIMWYAPVGIMFLVAGKIVEMEDVGLLFARLGKYILCCLLGHAIHGLLVLPLIYFLFTRKNPYRFLWGIVTPLATAFGTSSSSATLPLMMKCVEENNGVAKHISRFILPIGATVNMDGAALFQCVAAVFIAQLSQQSLDFVKIITILVTATASSVGAAGIPAGGVLTLAIILEAVNLPVDHISLILAVDWLVDRSCTVLNVEGDALGAGLLQNYVDRTESRSTEPELIQVKSELPLDPLPVPTEEGNPLLKHYRGPAGDATVASEKESVM |  | binds

Continued, values first:

binding [1] | binding [2] | Molecule
binds |  | SLC7A5 (from UniProt Q01650 1-507)
 | binds | EPS15 (epidermal growth factor receptor pathway substrate 15) (protein, UniProt P42566 1-896) MAAAAQLSLTQLSSGNPVYEKYYRQVDTGNTGRVLASDAAAFLKKSGLPDLILGKIWDLADTDGKGILNKQEFFVALRLVACAQNGLEVSLSSLNLAVPPPRFHDTSSPLLISGTSAAELPWAVKPEDKAKYDAIFDSLSPVNGFLSGDKVKPVLLNSKLPVDILGRVWELSDIDHDGMLDRDEFAVAMFLVYCALEKEPVPMSLPPALVPPSKRKTWVVSPAEKAKYDEIFLKTDKDMDGFVSGLEVREIFLKTGLPSTLLAHIWSLCDTKDCGKLSKDQFALAFHLISQKLIKGIDPPHVLTPEMIPPSDRASLQKNIIGSSPVADFSAIKELDTLNNEIVDLQREKNNVEQDLKEKEDTIKQRTSEVQDLQDEVQRENTNLQKLQAQKQQVQELLDELDEQKAQLEEQLKEVRKKCAEEAQLISSLKAELTSQESQISTYEEELAKAREELSRLQQETAELEESVESGKAQLEPLQQHLQDSQQEISSMQMKLMEMKDLENHNSQLNWCSSPHSILVNGATDYCSLSTSSSETANLNEHVEGQSNLESEPIHQESPARSSPELLPSGVTDENEVTTAVTEKVCSELDNNRHSKEEDPFNVDSSSLTGPVADTNLDFFQSDPFVGSDPFKDDPFGKIDPFGGDPFKGSDPFASDCFFRQSTDPFATSSTDPFSAANNSSITSVETLKHNDPFAPGGTVVAASDSATDPFASVFGNESFGGGFADFSTLSKVNNEDPFRSATSSSVSNVVITKNVFEETSVKSEDEPPALPPKIGTPTRPCPLPPGKRSINKLDSPDPFKLNDPFQPFPGNDSPKEKDPEIFCDPFTSATTTTNKEADPSNFANFSAYPSEEDMIEWAKRESEREEEQRLARLNQQEQEDLELAIALSKSEISEA
